Results are given in words; binding and its absence hold for the method and conditions named. Binding calls can cover weak binding; strength is not graded here.

The record followed here is publication PMC6323126.

This assay deals with T1, STRN3 coiled-coil domain (CC, amino acid residues 64–145) (human) (UniProt Q13033).
T1 sequence: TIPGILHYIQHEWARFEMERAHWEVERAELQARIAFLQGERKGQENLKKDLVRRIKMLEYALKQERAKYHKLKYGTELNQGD
As to the kind of experiment: pull-down; MBP pulldown: MBP-tagged protein, partner and amylose resin mixed at 4 °C for 1 h in 20 mM HEPES (pH 7.5), 100 mM NaCl; eluted with 20 mM maltose; SDS-PAGE, Coomassie staining; both purified.

Take “regulatory A subunit of PP2A (PP2Aa) (human)”: the binding entry is reported as “binds”.
